# Test: general procedure: solution-phase peptide synthesis; TBTU/DIPEA
# Conditions: conjugation step
substance,measurement,value
Methyl-protected alkyl-peptidyl fluoroquinolone building block (11),conjugation yield,54%

# Source: patent US20250295790A1 (Helmholtz-Zentrum für Infektionsforschung GmbH, priority 2021, published 2025)
